PubChem BioAssay AID504784 | Drosophila RNAi Screening Center – 2011
Screen: 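Search for regulators of lipid droplet storage in oleate-fed fly cells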 (primary screen). Cell system: Drosophila Kc167 embryonic cells. Knock-down reagent: long dsRNA against Drosophila genes, about 250 ng dsRNA per well. Duration: 4 days. Challenge: cells fed 400 µM oleic acid bound to BSA. Measurement: 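Cells imaged and segmented; ratio of lipid droplet area to nuclear area, log-transformed, then normalised as a B-score over the screen; higher means more stored lipid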. Reading the numbers: droplet/nuclear area B-score: higher = more stored lipid (overstorage).
The deposit covers about 17,000 reagents; this is an unselected part of those that have a named target and a result. 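Each column is one replicate's B-score; the combined score over replicates was not deposited, so single values may mislead.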 Reagents against one gene are numbered here.

no.	target gene	dsRNA no.	droplet/nuclear area B-score, replicate 1	droplet/nuclear area B-score, replicate 2	droplet/nuclear area B-score, replicate 3
1	Bsg	1	-1.09	-0.0988	
2	Bsg	2	-1.8	0.689	
3	Chs2	1	1.06	1.38	
4	CG9119	1	1.84		
5	Nos	1	0.403	0.127	
6	CG32040	1	-0.466	-0.155	
7	Uro	1	1.65	-0.552	
8	Gyc89Db	1	-0.0225	-3.07	
9	Irc	1	-0.092	0.745	
10	CG18641	1	1.88	-0.894	
11	bug	1	-0.485	0.184	
12	CG10969	1	-0.327	-0.682	
13	CG11122	1	-0.579	-1.45	1.45
14	CG11409	1	0.38		
15	CG4968	1	0.369	-0.884	-0.14
16	CG33462	1	-3.32	-0.635	
17	Cyp9b2	1	0.309	0.0868	
18	CG31729	1	-0.407	0.153	
19	CG31729	2	-1.43	-0.517	
20	corn	1	-0.238	-0.0507	
21	corn	2	0.263	-0.165	
22	Dref	1	0.733	0.544	
23	Rpt1	1	1.06	3.76	
24	Prosalpha6T	1	-0.368	-0.0867	
25	Tim17b2	1	-0.711	0.433	
26	shi	1	-1.75	-2.25	-0.7
27	CG3987	1	0.0591	0.0132	
28	CG10465	1	-0.252	1.13	
29	CG8419	1	-0.54	0.0441	
30	CG14313	1	0.44	0.102	
31	betaCOP	1	4.67	4.58	

Part of the list above in another layout.
CG10465 | droplet/nuclear area B-score, replicate 1 = -0.252; droplet/nuclear area B-score, replicate 2 = 1.13
CG8419 | droplet/nuclear area B-score, replicate 1 = -0.54; droplet/nuclear area B-score, replicate 2 = 0.0441
CG14313 | droplet/nuclear area B-score, replicate 1 = 0.44; droplet/nuclear area B-score, replicate 2 = 0.102
betaCOP | droplet/nuclear area B-score, replicate 1 = 4.67; droplet/nuclear area B-score, replicate 2 = 4.58

The listing continues:
no.	target gene	dsRNA no.	droplet/nuclear area B-score, replicate 1	droplet/nuclear area B-score, replicate 2	droplet/nuclear area B-score, replicate 3
32	CG9646	1	-0.243	-0.276	
33	kek5	1	0.0663	0.935	
34	trx	1	-0.227	-5.77	
35	hppy	1	-0.847	0.0401	
36	hppy	2	0.169	1.02	
37	hppy	3	0.408	0.695	
38	CG9121	1	0.787	0.977	
39	TwdlY	1	-0.72	0.254	0.88
40	Rh3	1	0.549	0.382	
41	Cpr65Aw	1	-0.23	-0.665	
42	SF1	1	1.12	-1.45	
43	Cyp303a1	1	-0.682	-0.961	
44	APC10	1	1.18	-1.62	
45	CG14218	1	-2.32	-1.75	0.591
46	azot	1	1.12	1.38	
47	nht	1	-0.477	-0.572	0.552
48	CG31698	1	-0.832	0.488	
49	CG12818	1	-1.81	-0.74	
50	S-Lap7	1	-0.488	-0.149	
51	PTPMT1	1	-0.184	0.53	
52	CG17361	1	-1.55	-2.96	
53	CG13375	1	0.0362	0.204	
54	CG13731	1	0.394	0.279	
55	CG12347	1	0.0131	-0.451	
56	heix	1	-0.88	0.885	
